The record followed here is PMC10913587.

Sequences of proteins named here, by UniProt entry; tags and fusion partners are left off. Residues count along the entry.
UniProt O35235, residues 139-316: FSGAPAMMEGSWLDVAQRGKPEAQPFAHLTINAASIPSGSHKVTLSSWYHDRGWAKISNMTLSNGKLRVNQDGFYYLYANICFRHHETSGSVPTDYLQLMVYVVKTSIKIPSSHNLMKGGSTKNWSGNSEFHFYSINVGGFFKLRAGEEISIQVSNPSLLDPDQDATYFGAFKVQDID

The target of this test is T1, RANK on the cell membranes of RAW 264.7 cells (mouse (endogenous in RAW 264.7)) (UniProt O35305).
T1 sequence: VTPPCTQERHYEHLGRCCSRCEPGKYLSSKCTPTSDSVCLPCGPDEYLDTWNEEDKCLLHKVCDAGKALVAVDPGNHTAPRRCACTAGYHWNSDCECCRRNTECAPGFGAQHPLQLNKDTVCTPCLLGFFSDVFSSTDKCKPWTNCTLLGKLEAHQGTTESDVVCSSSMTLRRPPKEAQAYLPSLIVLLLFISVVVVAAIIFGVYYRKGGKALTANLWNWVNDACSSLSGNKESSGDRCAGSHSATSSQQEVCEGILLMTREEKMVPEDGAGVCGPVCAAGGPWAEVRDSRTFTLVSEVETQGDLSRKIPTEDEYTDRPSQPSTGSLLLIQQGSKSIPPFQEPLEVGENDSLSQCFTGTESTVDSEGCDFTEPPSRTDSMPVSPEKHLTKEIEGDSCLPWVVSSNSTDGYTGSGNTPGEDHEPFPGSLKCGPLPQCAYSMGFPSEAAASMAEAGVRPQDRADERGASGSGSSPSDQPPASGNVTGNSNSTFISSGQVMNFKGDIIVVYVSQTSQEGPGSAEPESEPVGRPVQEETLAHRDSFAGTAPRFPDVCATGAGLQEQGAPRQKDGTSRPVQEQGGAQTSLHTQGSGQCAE
As to the kind of experiment: depletion of RANKL from culture medium by cells, RANKL left in the supernatant measured by ELISA; RAW 264.7 cells (2 x 10^5 per well, 6-well plates) incubated with RANKL (50 ng/ml) and SAHA (0, 0.5, 1 μM) for 72 h at 37 °C; supernatant cleared by centrifugation; RANKL solutions not incubated with cells as positive controls; only the binder purified. A general note: An ELISA detects its analyte on a solid surface through an enzyme-linked reagent.

Results are given in words; binding and its absence hold for the method and conditions named. Some binding calls cover weakened binding; strength is not graded here.

With “recombinant murine RANKL (receptor activator of nuclear factor κB ligand) (from UniProt O35235 139-316)”, the binding result is “binds”.
